Measurements reported in PubChem BioAssay AID1259281 (Sanger Institute, 2017)
Test: 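Find knock-downs that kill colorectal cancer cells alone or strengthen targeted drugs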 (primary screen). Cells: human COLO678 colorectal cancer cell line. Knock-down reagent: siRNA pool against human genes. Conditions: anchor drugs at fixed doses: BYL719 1 µM, cetuximab 5 µg/ml or trametinib 10 nM; DMSO vehicle for the siRNA-alone arm. Measurement: 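Cell viability compared with non-targeting pool wells, averaged over replicates; knock-down-alone effect also as robust z-score; synergy scores set knock-down plus drug against expected joint effect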. Direction: robust z-score, siRNA alone: higher = more viable cells; strongly negative means essential. Call rule: 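Essential (knock-down alone) when the siRNA-alone robust z-score is below -3; otherwise no change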. Meaning of the calls: active = essential (knock-down alone); inactive = no change.
This is one part, drawn at random, of 794 reagents tested. 22 of them (2.8%) count as active. 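Calls rest on knock-down alone only; drug synergy scores play no part in them.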 Further read-outs or replicates are left out here. Reagent sequences are not shown. The record does not give: the amount of reagent, the time to read-out.

With knock-down of AMHR2 (anti-Mullerian hormone receptor type 2), the record shows robust z-score, siRNA alone 0.473; inactive. SOS2 (SOS Ras/Rho guanine nucleotide exchange factor 2) gave robust z-score, siRNA alone 0.473; inactive. MAP3K20 (mitogen-activated protein kinase kinase kinase 20) showed robust z-score, siRNA alone 0.473; inactive. After knock-down of TK2 (thymidine kinase 2) the results were robust z-score, siRNA alone 0.473; inactive. Knock-down of ARID1A (AT-rich interaction domain 1A) gave: robust z-score, siRNA alone 0.473; inactive. For ADCK2 (aarF domain containing kinase 2), the entry reads robust z-score, siRNA alone 0.106; inactive.

With knock-down of PDGFRL (platelet derived growth factor receptor like), the screen gave robust z-score, siRNA alone 0.473; inactive. Silencing of TNK1 (tyrosine kinase non receptor 1) gave: robust z-score, siRNA alone 0.473; inactive. Silencing of MKNK2 (MAPK interacting serine/threonine kinase 2) gave: robust z-score, siRNA alone -1.47; inactive. After knock-down of PRAG1 (PEAK1 related, kinase-activating pseudokinase 1) the results were robust z-score, siRNA alone -1.01; inactive. With knock-down of HIPK3 (homeodomain interacting protein kinase 3), the screen gave robust z-score, siRNA alone 0.473; inactive. For PRKX (protein kinase cAMP-dependent X-linked catalytic subunit), the values are robust z-score, siRNA alone -0.13; inactive.

PFKFB3 (6-phosphofructo-2-kinase/fructose-2,6-biphosphatase 3) showed robust z-score, siRNA alone 0.473; inactive. After knock-down of TSSK4 (testis specific serine kinase 4), the record shows robust z-score, siRNA alone -0.287; inactive. Knock-down of STK17B (serine/threonine kinase 17b) gave: robust z-score, siRNA alone -0.41; inactive. After knock-down of CDKL2 (cyclin dependent kinase like 2), the screen gave robust z-score, siRNA alone 0.473; inactive. BMX (BMX non-receptor tyrosine kinase) gave robust z-score, siRNA alone 0.473; inactive.

Records above whose target name begins with M or m (2):
MAP3K20 (mitogen-activated protein kinase kinase kinase 20) — robust z-score, siRNA alone: 0.473; Call: inactive
MKNK2 (MAPK interacting serine/threonine kinase 2) — robust z-score, siRNA alone: -1.47; Call: inactive

More records follow.
Depletion of CAMK2G (calcium/calmodulin dependent protein kinase II gamma) came out at: robust z-score, siRNA alone 0.473; inactive. For MINK1 (misshapen like kinase 1) the deposit lists robust z-score, siRNA alone 0.473; inactive. With knock-down of NUP98 (nucleoporin 98 and 96 precursor), the record shows robust z-score, siRNA alone 0.473; inactive. Against STK4 (serine/threonine kinase 4) the deposit lists robust z-score, siRNA alone 0.473; inactive. PIP4K2B (phosphatidylinositol-5-phosphate 4-kinase type 2 beta) showed robust z-score, siRNA alone 0.455; inactive. With knock-down of FN3K (fructosamine 3 kinase) the results were robust z-score, siRNA alone -2.43; inactive.

NTRK1 (neurotrophic receptor tyrosine kinase 1) gave robust z-score, siRNA alone 0.473; inactive. PINK1 (PTEN induced kinase 1) scored robust z-score, siRNA alone 0.441; inactive. After knock-down of ROR1 (ROR family WNT receptor 1) the results were robust z-score, siRNA alone 0.473; inactive. Knock-down of CSF1R (colony stimulating factor 1 receptor) gave: robust z-score, siRNA alone -2.3; inactive. With knock-down of FGFR2 (fibroblast growth factor receptor 2), the screen gave robust z-score, siRNA alone 0.473; inactive.
